# Test results published in publication PMC7819943, “Rice protein-binding microarrays: a tool to detect cis-acting elements near promoter regions in rice”.
# Chains of the proteins cited; added tags and fusions are not shown.
# UniProt Q0JBA9, entry or part of it: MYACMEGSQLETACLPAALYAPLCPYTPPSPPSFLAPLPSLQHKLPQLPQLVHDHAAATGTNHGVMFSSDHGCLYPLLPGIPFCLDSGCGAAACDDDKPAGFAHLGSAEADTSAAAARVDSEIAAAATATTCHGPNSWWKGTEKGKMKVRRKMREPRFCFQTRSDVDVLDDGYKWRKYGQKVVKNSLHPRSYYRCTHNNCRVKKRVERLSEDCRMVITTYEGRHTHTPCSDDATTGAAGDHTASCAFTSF
# The other results are listed elsewhere or left out.
# Target: OsWRKY34 (Oryza sativa, UniProt Q0JBA9 1-250)
# Assay: protein-binding microarray (RPBM); PBS, 2% BSA, 51.3 ng/ul salmon testes DNA, 50 uM zinc acetate, 200 nM TF, 25 C, 1 h; high values mean tight binding
# Conditions: protein: recombinant; tags: N-terminal polyhistidine and DsRed monomer fusion (pET32a); label: CyDye5-dUTP incorporated in the synthesized complementary strand; 3' TTTTT single-stranded linker to array surface; dsDNA, one strand shown
# Summary of the method: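 Transcription factors, each fused N-terminally to a polyhistidine tag and DsRed, were expressed in E. coli BL21-CodonPlus and purified on Ni–NTA. A custom Agilent array was made double-stranded by primer extension with Cy5-dUTP and blocked with 2% BSA. It was incubated with 200 nM protein in PBS, 2% BSA, salmon testes DNA and 50 µM zinc acetate at 25 °C for 1 h, then washed. The binding signal is per-feature fluorescence intensity (arbitrary units) read on an Axon 4000B scanner.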
row,Sequence,binding signal
1,ACCCTAACCCTAGCCGCCTCTCTCTCGACCGCTCGTCTCTCGGAGTCACCTAGTGCAG,13400 fluorescence intensity (a.u.)
2,ACTCGCTTTGGTGGCGGAGAGTTTTTTTTTTTCCCTTTTCCGGAGTCACCTAGTGCAG,11500 fluorescence intensity (a.u.)
3,CGCTAGAATTGTTCTATGTCTTTTTATTTTTCTCTAGTCCCGGAGTCACCTAGTGCAG,8130 fluorescence intensity (a.u.)
4,TCGGCTCACCGCCTCACCGGCTCACATCGCATCATCGACACGGAGTCACCTAGTGCAG,9070 fluorescence intensity (a.u.)
5,CTACCTTTTCTTTTCATGTGCTTGACGGGCCGCGAATGTCCGGAGTCACCTAGTGCAG,9880 fluorescence intensity (a.u.)
6,GCACGCTGTTAGTTGAAACATATTGCACCTTTTCTCTATTCGGAGTCACCTAGTGCAG,9160 fluorescence intensity (a.u.)
7,ACCACGACGGCCTGTGTCCACCCGTCGCTTGCCAGTTCACCGGAGTCACCTAGTGCAG,9010 fluorescence intensity (a.u.)
8,ATCCCGTCCCTGACCTGTAACCATTATCAATCATGCTCGACGGAGTCACCTAGTGCAG,9210 fluorescence intensity (a.u.)
9,GACATGTGCTCCTTGTTGTTTGGCTTGGTCCGCTAGTTCCCGGAGTCACCTAGTGCAG,11200 fluorescence intensity (a.u.)
10,TTTTTTGGATGGGGAGTGATCTTCTCTTACCTCGGTGGGTCGGAGTCACCTAGTGCAG,9400 fluorescence intensity (a.u.)
11,GCCCCGCCAGCTTCTCCACCCAGGCCTCCGCCCTCCTCCGCGGAGTCACCTAGTGCAG,8230 fluorescence intensity (a.u.)
12,AACTGCTGAACCTCTAAACATTGACACGTACTGTATATTCCGGAGTCACCTAGTGCAG,9860 fluorescence intensity (a.u.)
13,TCCTAAAATATTTCATTATTTTCTTCGTGTATGATTTATTCGGAGTCACCTAGTGCAG,11200 fluorescence intensity (a.u.)
14,TCTGCTTCATTACAATTTACTTACCACTATTATCAACAAGCGGAGTCACCTAGTGCAG,8720 fluorescence intensity (a.u.)
15,CTGATTATACCATTGTTTTCGTTGCAACTAAATCTTGATACGGAGTCACCTAGTGCAG,9280 fluorescence intensity (a.u.)
16,AATTTGTATTCCTTGTCTTTGGGCTGCGACTTGTCTGGCTCGGAGTCACCTAGTGCAG,8190 fluorescence intensity (a.u.)
17,CGGACTCGCGGCTCGTTTTCGCGCTCGCGCGCCTGGTCAACGGAGTCACCTAGTGCAG,8480 fluorescence intensity (a.u.)
18,TGCCGTCCTCCGTCACTTCCTGCTCCGGTCGCGTTCGTACCGGAGTCACCTAGTGCAG,8640 fluorescence intensity (a.u.)
19,CCGCCACCGCCGCCGCCGCCGCCACCTCTGTCTGCCGCCACGGAGTCACCTAGTGCAG,8530 fluorescence intensity (a.u.)
20,AGTTCTCATCTCCAATTTTCTCGGTACGTGTATTTGAGGGCGGAGTCACCTAGTGCAG,8240 fluorescence intensity (a.u.)
21,TTTTTCTCTCGTTCACATTCACCCCACAAGAATCTTATCGCGGAGTCACCTAGTGCAG,8620 fluorescence intensity (a.u.)

# Two records picked at random from those above, as already listed:
row,Sequence,binding signal
20,AGTTCTCATCTCCAATTTTCTCGGTACGTGTATTTGAGGGCGGAGTCACCTAGTGCAG,8240 fluorescence intensity (a.u.)
11,GCCCCGCCAGCTTCTCCACCCAGGCCTCCGCCCTCCTCCGCGGAGTCACCTAGTGCAG,8230 fluorescence intensity (a.u.)

# (next part)

row,Sequence,binding signal
1,ATCTATGGTCAAAGTCAACACCATCGTAATTCTCACCTGGCGGAGTCACCTAGTGCAG,9730 fluorescence intensity (a.u.)
2,AAGCGGGGATTTTATGTGGGCAGTGGGTTTTCTTCTTAAACGGAGTCACCTAGTGCAG,19300 fluorescence intensity (a.u.)
3,CCGTGTTAATGTAAGTGTTCCGTTGCTGTCCGTGTGAATTCGGAGTCACCTAGTGCAG,9260 fluorescence intensity (a.u.)
4,GTTGCATCCAGAGCCCGCCCCGCGTCTCTACTCGCTCCGCCGGAGTCACCTAGTGCAG,8330 fluorescence intensity (a.u.)
5,TTTCCTCCGTTTCATATTAAGTCATTTGACTTTTTTTGTCCGGAGTCACCTAGTGCAG,9460 fluorescence intensity (a.u.)
6,ATCCCATTTCCGGAAGATATTACCGTTTCTATTTCCACCACGGAGTCACCTAGTGCAG,8620 fluorescence intensity (a.u.)
7,GTTTTCCTTGCTGACCTCGATTCGGAATATGGATCCGTGTCGGAGTCACCTAGTGCAG,8190 fluorescence intensity (a.u.)
8,GCCGCTTCGATGCTGGCGGCAGGGTGGGGCGGGGATGCCTCGGAGTCACCTAGTGCAG,11500 fluorescence intensity (a.u.)
9,TTGAAACCTTTCTGCGCCACTAGCTCCTAATTCCAAAACCCGGAGTCACCTAGTGCAG,8040 fluorescence intensity (a.u.)
10,ATGGCATTGAGCATTACAGTTGAATTTGTGTAGTTTTTAGCGGAGTCACCTAGTGCAG,8390 fluorescence intensity (a.u.)
11,TTGTCGTTTCCATGTAGAACTCTAGTTATCTTTACTTATCCGGAGTCACCTAGTGCAG,9380 fluorescence intensity (a.u.)
12,AATTCCCCACCGCGCCACCGCCTCGGCCCCATCACCTCGTCGGAGTCACCTAGTGCAG,8700 fluorescence intensity (a.u.)
13,TCGCCCGCGTCAGCCCCGCCGTCGCTCGTCCGTCGCCACCCGGAGTCACCTAGTGCAG,8780 fluorescence intensity (a.u.)
14,TGTGGTGCGTGCCGCGTGCGGGAGGGCAGGGTGAGGTGAGCGGAGTCACCTAGTGCAG,8810 fluorescence intensity (a.u.)
15,TGAGGCTGACACGTGGGCCCTACATTTTCTTTTCACTTACCGGAGTCACCTAGTGCAG,9220 fluorescence intensity (a.u.)
16,GCTCGGTTGCTTCTCTTCTTTCCTCTCTGTCTTCTGTCTTCGGAGTCACCTAGTGCAG,11400 fluorescence intensity (a.u.)
17,TCCGTCCCTAAATATTTGACGCCGTTGACTTTTTAACACACGGAGTCACCTAGTGCAG,35700 fluorescence intensity (a.u.)
18,GAAGTTAGGGTTTGAGGGTTTGGTTCCGGAGGGTAGGGTCCGGAGTCACCTAGTGCAG,9850 fluorescence intensity (a.u.)
19,TAACGATTTTTTTTTTGGGAGGGTGGGGATTTTTTTTTTCCGGAGTCACCTAGTGCAG,24100 fluorescence intensity (a.u.)
20,AATTTTTATATTGTTGACCTGCAGATCCTTATGTTGGACTCGGAGTCACCTAGTGCAG,8260 fluorescence intensity (a.u.)
21,CGATGCTCGATCGGCTGGTAATTGACCATATTTATCATTTCGGAGTCACCTAGTGCAG,8370 fluorescence intensity (a.u.)
